Results from the supplement of paper PMC10849652.
The list shows a part of the results.

Amino acid sequences for entries named in this document (tags omitted). A change or cut given only in a name is not applied to a line headed by its entry.
UniProt Q96QG7: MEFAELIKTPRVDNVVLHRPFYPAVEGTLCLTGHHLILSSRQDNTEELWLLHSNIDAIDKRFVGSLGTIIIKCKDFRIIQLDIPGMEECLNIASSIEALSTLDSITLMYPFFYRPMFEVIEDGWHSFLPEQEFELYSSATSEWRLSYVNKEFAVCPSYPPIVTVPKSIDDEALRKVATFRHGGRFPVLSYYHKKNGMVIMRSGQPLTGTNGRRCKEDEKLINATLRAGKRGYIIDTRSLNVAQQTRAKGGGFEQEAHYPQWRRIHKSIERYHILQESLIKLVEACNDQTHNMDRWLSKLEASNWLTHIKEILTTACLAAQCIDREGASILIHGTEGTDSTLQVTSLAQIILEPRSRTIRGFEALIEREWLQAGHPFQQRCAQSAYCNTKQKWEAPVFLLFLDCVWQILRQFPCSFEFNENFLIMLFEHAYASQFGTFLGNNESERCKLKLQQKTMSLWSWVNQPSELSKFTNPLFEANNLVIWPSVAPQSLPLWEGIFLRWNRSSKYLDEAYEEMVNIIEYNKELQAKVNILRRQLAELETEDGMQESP
UniProt P46199: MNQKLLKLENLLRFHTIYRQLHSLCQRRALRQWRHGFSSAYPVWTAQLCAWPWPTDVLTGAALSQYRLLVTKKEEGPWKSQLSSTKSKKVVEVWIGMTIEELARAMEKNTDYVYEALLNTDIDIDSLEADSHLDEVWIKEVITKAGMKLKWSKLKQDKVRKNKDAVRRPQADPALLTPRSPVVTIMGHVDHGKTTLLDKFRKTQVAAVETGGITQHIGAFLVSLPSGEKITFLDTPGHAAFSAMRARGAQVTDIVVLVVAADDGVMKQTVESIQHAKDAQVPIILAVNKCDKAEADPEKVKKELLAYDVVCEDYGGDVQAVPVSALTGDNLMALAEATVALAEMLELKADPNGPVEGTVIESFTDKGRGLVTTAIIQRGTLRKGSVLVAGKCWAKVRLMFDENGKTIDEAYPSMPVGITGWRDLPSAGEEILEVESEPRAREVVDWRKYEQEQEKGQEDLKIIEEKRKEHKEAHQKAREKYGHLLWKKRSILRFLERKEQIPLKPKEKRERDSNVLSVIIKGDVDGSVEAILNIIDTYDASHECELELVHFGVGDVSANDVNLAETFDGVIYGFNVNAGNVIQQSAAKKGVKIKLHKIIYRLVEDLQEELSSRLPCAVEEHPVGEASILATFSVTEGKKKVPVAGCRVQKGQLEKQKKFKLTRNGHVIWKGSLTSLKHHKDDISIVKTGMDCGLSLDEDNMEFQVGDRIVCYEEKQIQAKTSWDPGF
UniProt Q9HD23: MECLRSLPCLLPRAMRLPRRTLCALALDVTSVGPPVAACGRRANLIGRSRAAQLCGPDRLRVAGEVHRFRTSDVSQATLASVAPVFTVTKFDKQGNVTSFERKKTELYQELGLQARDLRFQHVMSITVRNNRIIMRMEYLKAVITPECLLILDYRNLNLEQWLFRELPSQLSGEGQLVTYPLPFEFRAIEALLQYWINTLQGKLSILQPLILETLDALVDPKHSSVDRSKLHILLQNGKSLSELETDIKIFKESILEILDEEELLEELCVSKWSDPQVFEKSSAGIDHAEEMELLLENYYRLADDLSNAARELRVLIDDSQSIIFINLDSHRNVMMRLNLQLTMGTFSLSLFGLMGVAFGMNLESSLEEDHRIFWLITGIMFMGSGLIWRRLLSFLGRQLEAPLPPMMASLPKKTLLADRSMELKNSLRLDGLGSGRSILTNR
UniProt P03886, whole entry, looked up: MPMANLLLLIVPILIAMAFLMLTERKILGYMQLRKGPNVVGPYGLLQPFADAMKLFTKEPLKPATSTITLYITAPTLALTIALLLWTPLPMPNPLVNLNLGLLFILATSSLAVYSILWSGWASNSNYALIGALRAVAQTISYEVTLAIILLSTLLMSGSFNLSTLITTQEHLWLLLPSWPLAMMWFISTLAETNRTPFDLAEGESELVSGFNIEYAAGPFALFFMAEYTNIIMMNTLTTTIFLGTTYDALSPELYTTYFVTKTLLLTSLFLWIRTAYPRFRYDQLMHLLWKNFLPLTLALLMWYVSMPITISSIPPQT
UniProt Q13496: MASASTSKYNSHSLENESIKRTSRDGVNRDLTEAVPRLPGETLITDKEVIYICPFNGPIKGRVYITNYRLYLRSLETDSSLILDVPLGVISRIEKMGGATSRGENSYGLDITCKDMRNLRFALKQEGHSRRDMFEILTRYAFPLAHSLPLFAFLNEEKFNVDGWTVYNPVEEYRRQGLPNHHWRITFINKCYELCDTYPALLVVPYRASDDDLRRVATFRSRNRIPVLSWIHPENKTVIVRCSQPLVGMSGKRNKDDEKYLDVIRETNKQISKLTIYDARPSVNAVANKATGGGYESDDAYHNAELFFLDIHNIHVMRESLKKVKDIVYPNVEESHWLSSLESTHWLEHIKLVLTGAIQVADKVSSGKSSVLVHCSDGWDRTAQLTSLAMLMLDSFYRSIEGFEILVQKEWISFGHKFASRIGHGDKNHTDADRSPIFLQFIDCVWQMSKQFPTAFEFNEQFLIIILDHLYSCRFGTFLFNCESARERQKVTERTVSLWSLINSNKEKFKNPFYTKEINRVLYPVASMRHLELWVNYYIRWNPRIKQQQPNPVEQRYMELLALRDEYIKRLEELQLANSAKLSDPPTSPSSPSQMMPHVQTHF
UniProt P52701: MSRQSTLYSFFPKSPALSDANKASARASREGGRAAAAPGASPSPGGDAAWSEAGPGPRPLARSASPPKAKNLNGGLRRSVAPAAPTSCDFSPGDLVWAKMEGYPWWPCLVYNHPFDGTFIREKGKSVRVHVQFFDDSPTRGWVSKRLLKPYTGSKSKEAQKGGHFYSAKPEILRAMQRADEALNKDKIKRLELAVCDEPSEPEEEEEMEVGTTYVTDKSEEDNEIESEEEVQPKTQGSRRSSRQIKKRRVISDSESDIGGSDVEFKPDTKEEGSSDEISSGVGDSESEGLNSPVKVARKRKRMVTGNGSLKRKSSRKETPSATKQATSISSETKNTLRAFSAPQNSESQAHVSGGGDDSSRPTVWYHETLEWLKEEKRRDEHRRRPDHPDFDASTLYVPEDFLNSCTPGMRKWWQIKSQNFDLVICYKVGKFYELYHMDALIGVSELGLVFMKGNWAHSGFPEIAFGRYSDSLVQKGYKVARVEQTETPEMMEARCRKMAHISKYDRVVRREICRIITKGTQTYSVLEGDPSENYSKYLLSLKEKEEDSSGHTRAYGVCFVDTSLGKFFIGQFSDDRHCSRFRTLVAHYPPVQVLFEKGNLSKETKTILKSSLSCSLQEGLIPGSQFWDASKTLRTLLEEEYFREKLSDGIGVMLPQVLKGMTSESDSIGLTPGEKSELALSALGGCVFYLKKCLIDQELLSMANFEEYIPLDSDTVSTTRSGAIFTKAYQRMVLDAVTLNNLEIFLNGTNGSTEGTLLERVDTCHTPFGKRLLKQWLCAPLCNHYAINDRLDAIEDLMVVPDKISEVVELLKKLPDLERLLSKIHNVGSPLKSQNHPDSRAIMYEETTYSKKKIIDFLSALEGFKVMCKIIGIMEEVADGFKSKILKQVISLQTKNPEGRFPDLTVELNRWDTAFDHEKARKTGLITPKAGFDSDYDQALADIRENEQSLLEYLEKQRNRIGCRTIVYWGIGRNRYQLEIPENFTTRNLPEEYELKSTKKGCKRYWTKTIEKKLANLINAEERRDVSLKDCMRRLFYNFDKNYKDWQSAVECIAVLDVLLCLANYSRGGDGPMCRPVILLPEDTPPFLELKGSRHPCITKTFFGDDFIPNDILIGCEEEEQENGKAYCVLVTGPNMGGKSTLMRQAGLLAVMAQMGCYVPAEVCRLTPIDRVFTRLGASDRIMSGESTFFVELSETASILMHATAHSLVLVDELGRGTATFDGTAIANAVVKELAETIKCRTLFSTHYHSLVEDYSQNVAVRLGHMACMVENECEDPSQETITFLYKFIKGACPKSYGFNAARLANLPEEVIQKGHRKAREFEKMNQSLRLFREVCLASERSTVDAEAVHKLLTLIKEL
UniProt Q9Y3D2: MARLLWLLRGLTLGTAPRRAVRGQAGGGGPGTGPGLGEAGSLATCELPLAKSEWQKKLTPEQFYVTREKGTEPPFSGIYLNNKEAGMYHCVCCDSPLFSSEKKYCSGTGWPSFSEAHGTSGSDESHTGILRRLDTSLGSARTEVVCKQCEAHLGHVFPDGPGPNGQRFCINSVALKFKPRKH
UniProt Q13330: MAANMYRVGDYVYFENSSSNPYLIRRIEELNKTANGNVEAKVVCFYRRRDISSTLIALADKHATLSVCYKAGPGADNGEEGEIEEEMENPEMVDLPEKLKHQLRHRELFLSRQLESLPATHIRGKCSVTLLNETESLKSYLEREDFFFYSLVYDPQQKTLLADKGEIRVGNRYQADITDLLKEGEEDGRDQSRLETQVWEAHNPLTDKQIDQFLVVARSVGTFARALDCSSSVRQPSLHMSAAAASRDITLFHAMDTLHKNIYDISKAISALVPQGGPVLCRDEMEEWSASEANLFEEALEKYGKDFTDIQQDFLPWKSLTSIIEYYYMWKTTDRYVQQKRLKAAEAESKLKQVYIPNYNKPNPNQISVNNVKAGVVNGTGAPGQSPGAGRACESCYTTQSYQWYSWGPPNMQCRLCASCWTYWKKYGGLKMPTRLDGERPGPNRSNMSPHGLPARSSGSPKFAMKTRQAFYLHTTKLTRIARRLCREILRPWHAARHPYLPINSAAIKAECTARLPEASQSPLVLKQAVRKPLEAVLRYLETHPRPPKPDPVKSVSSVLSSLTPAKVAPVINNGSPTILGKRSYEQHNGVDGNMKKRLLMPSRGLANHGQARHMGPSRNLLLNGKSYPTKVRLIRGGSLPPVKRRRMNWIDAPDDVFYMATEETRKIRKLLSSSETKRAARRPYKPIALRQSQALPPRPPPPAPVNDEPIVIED
UniProt Q96DH6: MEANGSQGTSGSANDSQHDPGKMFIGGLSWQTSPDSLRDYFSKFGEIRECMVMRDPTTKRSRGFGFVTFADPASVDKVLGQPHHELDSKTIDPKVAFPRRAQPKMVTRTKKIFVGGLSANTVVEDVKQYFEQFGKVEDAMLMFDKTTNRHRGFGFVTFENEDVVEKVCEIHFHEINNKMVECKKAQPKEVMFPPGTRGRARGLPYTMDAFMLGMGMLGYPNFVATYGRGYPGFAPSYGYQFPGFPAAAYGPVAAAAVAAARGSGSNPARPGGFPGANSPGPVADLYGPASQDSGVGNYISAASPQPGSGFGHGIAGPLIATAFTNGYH
UniProt P82909: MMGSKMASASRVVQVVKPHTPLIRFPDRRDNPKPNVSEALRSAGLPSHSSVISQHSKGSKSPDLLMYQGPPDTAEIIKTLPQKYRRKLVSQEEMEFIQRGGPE

compound: CN1CC[C@H](c2c(O)cc(O)c3c(=O)cc(-c4ccccc4Cl)oc23)[C@H](O)C1 [alvocidib]; test: log2 fold change, soluble protein after heating vs DMSO (PISA); higher = thermal stabilisation; K562 lysate, 10 uM; active = over 0.2 and 3.5 SD of the protein, either way, in both replicates (recomputed)
Summary of the method: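 Values give the log-two fold change in thermal stability against solvent controls, from duplicates. Crude K562 extract at 1 mg/mL protein, made by dounce homogenisation in PBS pH 7.4 with 1 mM MgCl2, was treated with 10 μM compound for 30 min. After 3 min heating across 48°C-58°C, aliquots were pooled, adjusted to 0.5% NP-40 at 4°C and centrifuged at 21,000xg for 90 min. The supernatant was measured by TMTpro 16plex LC-MS/MS with channel sums equalised.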

log2 fold change, inactive:
MRPL4 (UniProt Q9BYD3) 0.045
MRPS9 (UniProt P82933) 0.013
MTMR9 (UniProt Q96QG7) 0
MRPL28 (UniProt Q13084) 0.261
MRPL41 (UniProt Q8IXM3) 0.096
MRPS22 (UniProt P82650) 0.006
MRPL45 (UniProt Q9BRJ2) 0.005
MRPS18A isoform 2 (UniProt Q9NVS2) 0.18
MRPL50 (UniProt Q8N5N7) 0.028
MTIF2 (UniProt P46199) 0.049
MRS2 (UniProt Q9HD23) -0.017
MT-ND1 (UniProt P03886) -0.149
MRPS30 (UniProt Q9NP92) -0.191
MTM1 (UniProt Q13496) -0.029
MRPS18B (UniProt Q9Y676) -0.061
MRPL32 (UniProt Q9BYC8) -0.017
MRPS5 (UniProt P82675) 0.004
MSH6 (UniProt P52701) -0.021
MSRB2 (UniProt Q9Y3D2) 0.056
MTA1 (UniProt Q13330) 0.007
MSI2 (UniProt Q96DH6) 0.035
MRPL9 (UniProt Q9BYD2) 0.027
MRPS10 (UniProt P82664) -0.005
MRPS36 (UniProt P82909) -0.023

2 entries drawn at random from those above, as already listed:
log2 fold change, inactive:
MSRB2 (UniProt Q9Y3D2) 0.056
MT-ND1 (UniProt P03886) -0.149
